Publication PMC9555238, “Interaction of BES1 and LBD37 transcription factors modulates brassinosteroid-regulated root forging response under low nitrogen in arabidopsis”
These are yes or no findings as the source states them, for the method shown. For part of these data: Binding seen in cells or lysates may run through a third protein. Some entries that bind do so weakly or less than the wild type. Where a sequence is shown, tags or fusion partners need not be part of it. Values belong to the molecule of their own block, whether it stands above or below them.

Amino acid sequences for entries named in this document (tags omitted).
UniProt Q9LN63: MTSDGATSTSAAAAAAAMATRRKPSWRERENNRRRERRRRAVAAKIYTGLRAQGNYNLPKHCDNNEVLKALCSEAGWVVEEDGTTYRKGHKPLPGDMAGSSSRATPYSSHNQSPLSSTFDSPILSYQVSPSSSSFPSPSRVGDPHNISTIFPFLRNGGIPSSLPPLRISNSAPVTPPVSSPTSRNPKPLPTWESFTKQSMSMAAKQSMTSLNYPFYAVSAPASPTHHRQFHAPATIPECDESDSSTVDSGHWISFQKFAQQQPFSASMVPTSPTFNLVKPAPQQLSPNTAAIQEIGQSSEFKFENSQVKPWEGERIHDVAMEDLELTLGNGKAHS

Key:
[1] = target: T1, FLAG-HA-LBD37 (Arabidopsis thaliana) (UniProt Q9FN11); test: co-IP; root extracts of 14-day-old 35S:FLAG-HA-LBD37/Col-0 plants; HA agarose beads, IP buffer 10 mM Tris pH 7.5, 0.5% Nonidet P-40, 2 mM EDTA, 150 mM NaCl, 4°C 2 h; detected with anti-BES1 antibody
T1 sequence: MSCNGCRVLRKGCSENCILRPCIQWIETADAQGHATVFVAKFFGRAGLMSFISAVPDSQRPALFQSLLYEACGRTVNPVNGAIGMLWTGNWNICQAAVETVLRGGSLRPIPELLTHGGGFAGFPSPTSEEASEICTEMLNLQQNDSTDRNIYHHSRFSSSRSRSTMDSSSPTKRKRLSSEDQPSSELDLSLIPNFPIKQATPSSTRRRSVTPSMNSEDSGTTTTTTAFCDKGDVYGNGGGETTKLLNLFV

[2] = target: GBK-BES1 (BRI1 EMS SUPPRESSOR 1 fused with the GAL4 binding domain) (Arabidopsis thaliana) (UniProt Q9LN63); test: two-hybrid; yeast AH109; BES1 in pGBKT7 as bait, LBDs in pGADT7 as prey; growth on SD/-Leu/-Trp/-His/-Ade at 30°C for 3 days
[3] = target: HIS-BES1 (Arabidopsis thaliana) (UniProt Q9LN63); test: pull-down; HIS-BES1 and MBP-LBD37 coincubated, pulled down with HIS agarose beads, detected with anti-MBP antibody; in vitro; both purified
[4] = target: BES1 fused with nLUC of luciferase (Arabidopsis thaliana) (UniProt Q9LN63); test: split reporter; split-luciferase complementation in Nicotiana benthamiana leaves; BES1-nLUC and LBD37-cLUC; 48 h after infiltration, 1 mM D-luciferin

binding [1]: binds
Molecule: dephosphorylated form of BES1 (endogenous) (from UniProt Q9LN63 1-335)

binding [3]: binds
B3: MBP-LBD37 (protein, UniProt Q9FN11 1-250)
chain: T1 sequence

binding [4]: binds
B4: LBD37 fused with cLUC of luciferase (protein, UniProt Q9FN11 1-250)
chain: T1 sequence

Continued, molecule first:

B1: LBD39 in pGADT7 (yeast two-hybrid prey) (protein, UniProt Q9SZE8 1-240)
chain: MSCNGCRVLRKGCSETCILRPCLQWIESAESQGHATVFVAKFFGRAGLMSFISSVPELQRPALFQSLLFEACGRTVNPVNGAVGMLWTRNWHVCQAAVETVLRGGTLRPISDLLESPSLMISCDESSEIWHQDVSRNQTHHCRFSTSRSTTEMKDSLVNRKRLKSDSDLDLQVNHGLTLTAPAVPVPFLPPSSFCKVVKGDRPGSPSEESVTTSCWENGMRGDNKQKRNKGEKKLLNLFV
binding [2]: binds

B2: GAD-LBD37 (LBD37 fused with the GAL4 activation domain) (protein, UniProt Q9FN11 1-250)
chain: T1 sequence
binding [2]: binds

B5: LBD38 in pGADT7 (yeast two-hybrid prey) (protein, UniProt Q9SN23 1-247)
chain: MSCNGCRVLRKGCSENCILRPCIQWIESPEAQGHATVFVAKFFGRAGLMSFISAVPESQCPALFQSLLYEACGRTVNPVNGAVGLLWTGNWNVCQAAVETVLRGGSLKPIPELLNGGGFAGFPSPTSDEASEICTEMLNLRKADDSGDRNIYHHCRFSSSRSRSRSTASPPKRKRLSSEQQPSSELDLSLIPIYPIKTLPFKEDTPSMYSEESVTTVSFQNNNAGDRYVRCGGGGGGATTKLLNLFA
binding [2]: binds
